Results from patent publication US20240309457.

Sequences of proteins named here, by UniProt entry; tags and fusion partners are left off. A change or cut given only in a name is not applied to a line headed by its entry.
UniProt P31941: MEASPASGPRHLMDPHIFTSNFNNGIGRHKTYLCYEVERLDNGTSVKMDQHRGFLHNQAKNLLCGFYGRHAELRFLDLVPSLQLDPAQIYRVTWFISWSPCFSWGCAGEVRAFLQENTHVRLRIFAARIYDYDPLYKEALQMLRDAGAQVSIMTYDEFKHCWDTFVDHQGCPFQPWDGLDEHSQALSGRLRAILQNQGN
UniProt Q9UH17: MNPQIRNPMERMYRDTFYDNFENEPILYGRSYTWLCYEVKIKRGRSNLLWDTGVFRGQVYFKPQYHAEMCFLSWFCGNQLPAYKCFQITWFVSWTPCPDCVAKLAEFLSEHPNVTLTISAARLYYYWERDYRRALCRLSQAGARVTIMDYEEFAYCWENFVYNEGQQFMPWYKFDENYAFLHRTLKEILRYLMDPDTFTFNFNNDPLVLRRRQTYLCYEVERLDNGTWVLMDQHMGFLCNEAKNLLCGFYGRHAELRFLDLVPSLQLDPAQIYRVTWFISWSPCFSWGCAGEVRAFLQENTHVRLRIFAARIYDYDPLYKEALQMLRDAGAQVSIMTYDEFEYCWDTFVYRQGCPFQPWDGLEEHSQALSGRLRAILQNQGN

Experiments:
[1] = biological target: APOBEC3A (Homo sapiens) (UniProt P31941); assay: enzyme reaction in vitro; details: active in extracts with cellular RNA present; A3A deletion gave loss comparable to A3B deletion; double loss required to eliminate activity; protein in an extract; protein details: endogenous, MDA-MB-453 cell extract; label: 5' IRD800; single-stranded DNA
[2] = biological target: APOBEC3B (Homo sapiens) (UniProt Q9UH17); assay: enzyme reaction in vitro; details: UDG/NaOH cleavage, 37 C 2 h, protein in an extract, protein details: endogenous, MDA-MB-453 cell extract, label: 5' IRD800

| Sequence | activity on this sequence [1] | activity on this sequence ([2]; major activity after RNase A, inhibited by cellular RNA without RNase but still active, single-stranded DNA) | activity on this sequence ([2]; major deaminase activity in WT/KO extracts, RNase A treated, single-stranded …) |
| --- | --- | --- | --- |
| ATTATTATTATTGCAAGCTGTTCAGCTTGCTGAATTTATT [hairpin deaminase probe] | active | active | – |
| ATTATTATTATTATTATTATTTCATTTATTTATTTATTTA [linear deaminase probe] | – | – | active |
